Experimental data taken from article PMC6944460.
These are yes or no findings as the source states them, for the method shown. Binding seen in cells or lysates may run through a third protein. Some binding calls cover weakened binding; strength is not graded here. Tags and fused reporters may be left off the sequences shown.

Experiments:
Assay in all cases: co-IP; GFP-tagged InSyn1 constructs co-expressed with HA-tagged proteins in HEK293T cells; lysate (25 mM Hepes pH 7.4, 150 mM NaCl, 1 mM EDTA, 1% Nonidet P-40) incubated with GFP-Trap agarose; beads washed with lysis buffer; immunoblot with anti-HA and anti-GFP
[1] = molecular target: T1, InSyn1ΔM1-GFP (InSyn1 lacking a.a. 61-87, fused to GFP) (mouse) (UniProt Q8CD60)
T1 sequence: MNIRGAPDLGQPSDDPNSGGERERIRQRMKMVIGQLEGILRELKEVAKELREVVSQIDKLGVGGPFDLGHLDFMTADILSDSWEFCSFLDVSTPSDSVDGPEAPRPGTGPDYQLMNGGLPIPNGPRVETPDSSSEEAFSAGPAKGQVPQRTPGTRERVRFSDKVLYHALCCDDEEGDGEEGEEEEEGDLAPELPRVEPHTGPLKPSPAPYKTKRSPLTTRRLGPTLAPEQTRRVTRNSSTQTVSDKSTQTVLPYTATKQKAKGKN

[2] = molecular target: T2, InSyn1-GFP (full-length Inhibitory Synaptic protein 1 fused to GFP) (mouse) (UniProt Q8CD60)
T2 sequence: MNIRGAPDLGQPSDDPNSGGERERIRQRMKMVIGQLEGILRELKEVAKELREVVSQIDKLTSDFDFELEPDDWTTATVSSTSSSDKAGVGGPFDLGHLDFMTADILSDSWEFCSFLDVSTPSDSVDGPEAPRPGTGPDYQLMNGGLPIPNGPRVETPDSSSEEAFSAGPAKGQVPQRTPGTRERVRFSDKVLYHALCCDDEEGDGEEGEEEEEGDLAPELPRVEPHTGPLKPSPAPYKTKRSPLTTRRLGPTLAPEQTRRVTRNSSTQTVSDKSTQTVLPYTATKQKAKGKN

[3] = molecular target: T3, InSyn1ΔM2-GFP (InSyn1 lacking a.a. 88-180, fused to GFP) (mouse) (UniProt Q8CD60)
T3 sequence: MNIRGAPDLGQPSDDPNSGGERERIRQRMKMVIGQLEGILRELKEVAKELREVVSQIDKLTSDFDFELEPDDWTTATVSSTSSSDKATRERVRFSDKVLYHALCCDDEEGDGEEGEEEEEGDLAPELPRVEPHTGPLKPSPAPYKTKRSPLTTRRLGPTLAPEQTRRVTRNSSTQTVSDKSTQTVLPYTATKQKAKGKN

[4] = molecular target: T4, InSyn1ΔC-GFP (InSyn1 lacking a.a. 181-292, fused to GFP) (mouse) (UniProt Q8CD60)
T4 sequence: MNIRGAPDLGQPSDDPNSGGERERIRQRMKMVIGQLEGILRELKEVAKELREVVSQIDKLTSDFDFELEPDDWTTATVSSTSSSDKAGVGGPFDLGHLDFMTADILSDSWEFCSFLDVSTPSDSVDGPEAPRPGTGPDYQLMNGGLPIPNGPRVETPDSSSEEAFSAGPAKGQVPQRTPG

[5] = molecular target: T5, InSyn1ΔN-GFP (InSyn1 lacking a.a. 1-60, fused to GFP) (mouse) (UniProt Q8CD60)
T5 sequence: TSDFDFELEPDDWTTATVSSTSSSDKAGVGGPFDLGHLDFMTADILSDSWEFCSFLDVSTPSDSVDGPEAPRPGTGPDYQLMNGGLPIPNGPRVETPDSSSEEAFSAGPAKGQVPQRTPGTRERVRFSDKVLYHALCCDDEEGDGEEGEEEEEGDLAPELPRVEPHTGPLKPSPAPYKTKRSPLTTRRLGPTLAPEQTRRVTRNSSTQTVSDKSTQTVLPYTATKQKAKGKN

Measured: binding

B1: HA-β-dystrobrevin (protein, UniProt O60941 1-627)
chain: MIEESGNKRKTMAEKRQLFIEMRAQNFDVIRLSTYRTACKLRFVQKRCNLHLVDIWNMIEAFRDNGLNTLDHTTEISVSRLETVISSIYYQLNKRLPSTHQISVEQSISLLLNFMIAAYDSEGRGKLTVFSVKAMLATMCGGKMLDKLRYVFSQMSDSNGLMIFSKFDQFLKEVLKLPTAVFEGPSFGYTEHSVRTCFPQQRKIMLNMFLDTMMADPPPQCLVWLPLMHRLAHVENVFHPVECSYCRCESMMGFRYRCQQCHNYQLCQNCFWRGHAGGPHSNQHQMKEHSSWKSPAKKLSHAISKSLGCVPTREPPHPVFPEQPEKPLDLAHIVPPRPLTNMNDTMVSHMSSGVPTPTKRLQYSQDIPSHLADEHALIASYVARLQHCARVLDSPSRLDEEHRLIARYAARLAAEAGNVTRPPTDLSFNFDANKQQRQLIAELENKNREILQEIQRLRLEHEQASQPTPEKAQQNPTLLAELRLLRQRKDELEQRMSALQESRRELMVQLEELMKLLKEEEQKQAAQATGSPHTSPTHGGGRPMPMPVRSTSAGSTPTHCPQDSLSGVGGDVQEAFAQGTRRNLRNDLLVAADSITNTMSSLVKELHSAEEGAEEEEEKMQNGKDRG
not listed: [5]
binds: all other assays above

B2: HA-α1-syntrophin (protein, UniProt Q13424 1-505)
chain: MASGRRAPRTGLLELRAGAGSGAGGERWQRVLLSLAEDVLTVSPADGDPGPEPGAPREQEPAQLNGAAEPGAGPPQLPEALLLQRRRVTVRKADAGGLGISIKGGRENKMPILISKIFKGLAADQTEALFVGDAILSVNGEDLSSATHDEAVQVLKKTGKEVVLEVKYMKDVSPYFKNSTGGTSVGWDSPPASPLQRQPSSPGPTPRNFSEAKHMSLKMAYVSKRCTPNDPEPRYLEICSADGQDTLFLRAKDEASARSWATAIQAQVNTLTPRVKDELQALLAATSTAGSQDIKQIGWLTEQLPSGGTAPTLALLTEKELLLYLSLPETREALSRPARTAPLIATRLVHSGPSKGSVPYDAELSFALRTGTRHGVDTHLFSVESPQELAAWTRQLVDGCHRAAEGVQEVSTACTWNGRPCSLSVHIDKGFTLWAAEPGAARAVLLRQPFEKLQMSSDDGASLLFLDFGGAEGEIQLDLHSCPKTIVFIIHSFLSAKVTRLGLLA
not listed: [5]
binds: all other assays above

B3: HA-gephyrin (protein, UniProt Q8BUV3 1-769)
chain: MATEGMILTNHDHQIRVGVLTVSDSCFRNLAEDRSGINLKDLVQDPSLLGGTISAYKIVPDEIEEIKETLIDWCDEKELNLILTTGGTGFAPRDVTPEATKEVIEREAPGMALAMLMGSLNVTPLGMLSRPVCGIRGKTLIINLPGSKKGSQECFQFILPALPHAIDLLRDAIVKVKEVHDELEDLPSPPPPLSPPPTTSPHKQTEDKGVQCEEEEEEKKDSGVASTEDSSSSHITAAALAAKIPDSIISRGVQVLPRDTASLSTTPSESPRAQATSRLSTASCPTPKQIRRPDESKGVASRVGSLKARLPSCSSTYSVSEVQSRCSSKENILRASHSAVDITKVARRHRMSPFPLTSMDKAFITVLEMTPVLGTEIINYRDGMGRVLAQDVYAKDNLPPFPASVKDGYAVRAADGPGDRFIIGESQAGEQPTQTVMPGQVMRVTTGAPIPCGADAVVQVEDTELIRESDDGTEELEVRILVQARPGQDIRPIGHDIKRGECVLAKGTHMGPSEIGLLATVGVTEVEVNKFPVVAVMSTGNELLNPEDDLLPGKIRDSNRSTLLATIQEHGYPTINLGIVGDNPDDLLNALNEGISRADVIITSGGVSMGEKDYLKQVLDIDLHAQIHFGRVFMKPGLPTTFATLDIDGVRKIIFALPGNPVSAVVTCNLFVVPALRKMQGILDPRPTIIKARLSCDVKLDPRPEYHRCILTWHHQEPLPWAQSTGNQMSSRLMSMRSANGLLMLPPKTEQYVELHKGEVVDVMVIGRL
binds: all assays above
